Percent effect of library compounds

Protein sequences, listed by entry. Tags and fused reporters are not part of them. Residues count along the entry.
UniProt Q4DA54, 1-478: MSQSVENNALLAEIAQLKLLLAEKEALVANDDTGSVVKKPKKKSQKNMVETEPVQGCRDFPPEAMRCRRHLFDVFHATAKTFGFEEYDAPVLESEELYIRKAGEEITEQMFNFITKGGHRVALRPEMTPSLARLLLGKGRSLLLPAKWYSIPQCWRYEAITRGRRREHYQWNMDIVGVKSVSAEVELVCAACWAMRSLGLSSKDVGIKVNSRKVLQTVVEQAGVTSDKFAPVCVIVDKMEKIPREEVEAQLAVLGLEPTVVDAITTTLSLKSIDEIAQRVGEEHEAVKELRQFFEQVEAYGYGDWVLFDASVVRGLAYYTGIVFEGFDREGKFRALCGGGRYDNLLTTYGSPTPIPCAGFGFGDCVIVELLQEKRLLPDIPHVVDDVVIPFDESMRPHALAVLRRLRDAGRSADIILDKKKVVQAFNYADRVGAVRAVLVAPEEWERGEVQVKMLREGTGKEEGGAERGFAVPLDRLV

Source: ChEMBL document CHEMBL3988442, “University of Dundee, Small-Polar-MMV Screening Library” (2021).

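Enzyme assay of histidyl-tRNA synthetase; the read-out is not stated. Target: Histidine-tRNA ligase, Trypanosoma cruzi CL Brener (UniProt Q4DA54). Concentration: 30 µM. The record gives no direction; compounds that gave an IC50 in retests scored well above the rest, so higher reads as stronger inhibition. Of about 69,000 compounds tested this way, about 31 (0.045%) reached 50% or more in at least one test.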

The filed quantity is “Percent Effect” (%). How 0% and 100% were set is not recorded. Most values in the screen are low, and negative values occur. This is an unselected part of the compounds tested.

| compound | percent effect |
|---|---|
| `CC(=O)N(C)C1CCN(c2ncc3c(n2)CCN3c2ccccc2)C1` (stereo not shown) | 13.81% |
| `CN(C)c1nccc(N(C)C2CCCCC2)n1` | 7.514% |
| `Cc1n[nH]c(C)c1CCC(=O)N1CCC(O)(CN2CCN(C)CC2)C1` (stereo not shown) | 6.061% |
| `CN(C)c1ncc(-c2cc(C(=O)NCCC#N)n(CC3CC3)c2)cn1` | 1% |
| `COCCN1CC[C@@H]2OC[C@H](C(=O)NCc3cccs3)C[C@@H]2C1` | 0.5525% |
| `CCCn1c(C)c(CC(=O)NCCC(N)=O)c2c1CC(C)(C)CC2=O` | 1.345% |
| `CC1CCCN(CCNC(=O)c2ccn(-c3ccc(F)cc3)n2)C1` (stereo not shown) | 6.897% |
| `Cc1cc(C2CCCN2C(=O)COc2ccc(CC#N)cc2)on1` (stereo not shown) | -1.149% |
| `CS(=O)(=O)c1cc(Cl)cnc1C1CCN(C(=O)C2CC2)CC1` | -4.215% |
| `CC(C)(N)C(=O)N1CCCC(c2cncc(Oc3cccnc3)n2)C1` (stereo not shown) | 9.574% |
| `COCC1CN(CCc2ccc(OC)c(OC)c2)Cc2c1cnn2C` (stereo not shown) | 1.508% |
| `CCOC(=O)[C@]12CCCN(Cc3ccco3)C[C@H]1CN(S(C)(=O)=O)C2` | 1.676% |
| `O=C(O)c1c(-c2cccnc2)ncc2c1CCN(Cc1ccccn1)C2` | 15.7% |
| `CC(C)C(=O)N1CC[C@H]2N(C)CC[C@@]2(C(=O)Nc2ccccc2)CC1` | 5.525% |
| `CCOc1ccc(C#N)cc1NC(=O)N1CCC(N2CCCC2)C1` (stereo not shown) | 3.158% |
| `COc1cccc(COCC(=O)NC(C)c2nnc3n2CCC3)c1` (stereo not shown) | 9.392% |
| `O=C(Cc1cccs1)NC1CCN(c2cccc(F)c2)CC1` | -4.959% |
| `CSc1nccc(N2C[C@@H]3CC[C@H](C2)N(CC2CCC2)C3=O)n1` | -2.703% |
| `Fc1cccc(-c2nc(CN3CCOC(Cn4cccn4)C3)co2)c1` (stereo not shown) | 4.511% |
| `O=S(=O)(c1cccs1)N1CCCn2cnc(CO)c2C1` | 8.824% |
| `Cc1nc(N2CCCC2)ncc1C(=O)Nc1ccc(Br)cc1` | 7.921% |
| `CCc1nc2n(n1)CC(NCC(=O)Nc1cc(C)on1)CC2` (stereo not shown) | 5.263% |
| `Cc1cc(N2CCCCCC2)n2nc(C)c(C)c2n1` | 4.878% |
| `COc1c(C2CCCN2Cc2nc(-c3ccco3)no2)c(C)nn1C` (stereo not shown) | 5.233% |
| `Cc1cc(C)nc(N2CCCC(C(=O)Nc3n[nH]c(C(C)C)n3)C2)n1` (stereo not shown) | -0.5181% |
| `Nc1nnc(SCc2cc(=O)n3c4c(sc3n2)CCCC4)s1` | 10.89% |
| `O=C(O)c1c(-c2cncnc2)ncc2c1CCN(Cc1ccco1)C2` | -2.222% |
| `CCC1=N[C@@]2(CC[C@@H]3CN(Cc4ccccc4F)C[C@@H]32)C(=O)N1` | 4.813% |
| `CSC(C)C(=O)NCc1ccnc(N2CCN(C)CC2)c1` (stereo not shown) | 5.917% |
| `CC(=O)N1CCN(Cc2nnc(C(C)(C)C)o2)CC1` | 2.5% |
| `COc1ccc([C@@H]2CN(C(=O)CCC(F)(F)F)C[C@H]2NC(C)=O)cc1` | 4.564% |
| `CCc1n[nH]c(C2CN(Cc3nnc(C4CC4)n3C)CCO2)n1` (stereo not shown) | -1.887% |
| `COC(=O)c1cccc(S(=O)(=O)NC(=O)COC2CCCC2)c1` | 5.172% |
| `Cn1ccnc1-c1cn(CCCc2nnc(N)s2)nn1` | 12.44% |
| `Cc1ccc(NCc2cn3c(n2)CN(Cc2ccc(C)o2)CC3)nn1` | 27.59% |
| `CCC(C)N(CCOC)Cc1nc2c(cnn2C)c(=O)[nH]1` (stereo not shown) | 3.226% |
| `Nc1cnc(-c2ccc(F)cc2Cl)cn1` | -4.372% |
| `CN(C)CCNC(=O)c1ccn(-c2ccc3ccccn23)n1` | 10.74% |
| `CC(C(=O)N(C)Cc1ccco1)n1cncn1` (stereo not shown) | 4.762% |
| `CC(c1nc(C2CC2)no1)N(C)Cc1ccc(Cl)cc1` (stereo not shown) | 10.5% |
| `CN1C(=O)C2(CC(=O)Nc3c2cnn3C(C)(C)C)c2c(Cl)cccc21` (stereo not shown) | 0% |
| `Cc1noc(CCCNC(=O)C2CSCN2C(=O)C(C)(C)C)n1` (stereo not shown) | 11.52% |
| `CCOCC(=O)N1CCC2(CC1)COC(COCc1ccccn1)C2` (stereo not shown) | 8.696% |
| `O=C(O)c1csc(S(=O)(=O)N2CCCc3ccc(F)cc32)c1` | -0.4149% |
| `Cc1c(Cl)cccc1NC(=O)CCNc1ccc(C#N)cn1` | 4.255% |
| `Cc1cnn(CC2CCCCN2C(=O)Cc2c(C)nn(C)c2C)c1` (stereo not shown) | 4.507% |
| `O=C(c1cc(-c2cn[nH]c2)nc2cc(F)ccc12)N1CCS(=O)(=O)CC1` | 5.357% |
| `Cc1cc(C(=O)N2CCCC(C(=O)c3nccn3C)C2)c(=O)[nH]c1C` (stereo not shown) | 4% |
| `CN(CC(=O)NCC(=O)Nc1ccc(F)cc1)Cc1cccs1` | 7.463% |
| `Cc1nnc(CN2C[C@H](NC(=O)C3CCOCC3)[C@@H](C(C)C)C2)s1` | 0.431% |
| `CC(C)c1nnc(NC(=O)CSCc2cc(=O)n3ccccc3n2)s1` | 4% |
| `CCN(CC)S(=O)(=O)CC(=O)Nc1ccsc1` | -1.235% |
| `CC(O)CN1CCC(CNCc2ccccc2F)CC1` (stereo not shown) | 5.882% |
| `CN(Cc1nnc2n1CCC2)S(=O)(=O)c1cc(Br)ccc1Br` | -1.538% |
| `O=C(O)c1cccc(N2CCC(Oc3cccc(F)c3)CC2)n1` | 12.14% |
| `CC(O)CN1CCN(C(=O)CCOC(C)C)CC1` (stereo not shown) | 3.333% |
| `CN(C)S(=O)(=O)N1CCC(Cn2cccn2)CC1` | -1.111% |
| `COc1cccc(Cc2nc3c([nH]2)CC(C)(C)CNC3=O)c1OC` | 3.867% |
| `O=C([C@H]1C[C@@H]2CN(c3ncc(F)cn3)C[C@H]1O2)N1CCOCC1` | 2.513% |
| `CN(Cc1ccccc1)c1cnn(CC2COCCO2)c(=O)c1` (stereo not shown) | 8.929% |
| `COc1ccc(F)c(-c2ccnc(N)c2)c1` | 7.216% |
| `CN(Cc1ccccc1Cl)C(=O)c1cc(CN2CCC(O)CC2)on1` | 3.665% |
| `CNC(=O)C1CCN(C(=O)NCCc2ccc(Cl)s2)CC1` | 2.254% |
| `N#CC1(NC(=O)c2ccc(-c3nc(C4CC4)n[nH]3)cc2)CCSC1` (stereo not shown) | 9.135% |
| `O=C(Cn1cnc(-c2ccccc2)cc1=O)Nc1ccncc1` | 0% |
| `CCSc1ccccc1C(=O)NCC1CCN(Cc2ccsc2)CC1` | 2.513% |
| `Cc1c(NC(=O)NC(C)CCO)cccc1OC1CCCC1` (stereo not shown) | 9.392% |
| `CNC(=O)[C@@H]1CCO[C@@H]2CCN(CCc3ccccc3)C[C@H]21` | 4% |
| `COCCN1CCC2(CC1)CCN(Cc1ccccn1)CC2` | 7.767% |
| `O=C(CC1CCc2ccccc21)NC1(C(=O)O)CCCC1` (stereo not shown) | 6.667% |
| `Cc1cc(NCC2CCS(=O)(=O)C2)n2nc(C)cc2n1` (stereo not shown) | 3.879% |
| `O=C(NCc1cccnc1N1CCCCC1)c1ccc2[nH]nnc2c1` | 12.44% |
| `COc1ccc2cc(C(=O)N3CCCC3Cn3cc(C)cn3)[nH]c2c1` (stereo not shown) | 5.187% |
| `COc1c(F)cc(CN2CCC3(CC2)CN(C)C(=O)O3)cc1Cl` | 0.4926% |
| `CNc1nc(C(=O)N2CCCC(c3nccn3CC3CCC3)C2)cs1` (stereo not shown) | 0% |
| `COc1ccc(CCNC(=O)c2ccc(=O)n(C)c2)c(Cl)c1` | 2.679% |
| `Cc1cnc(C(C)(C)NC(=O)NCc2cccnc2OC(C)C)s1` | 5.882% |
| `Cn1ncnc1NS(=O)(=O)c1ccc(F)cc1` | 8.163% |
| `Cc1ccc(-c2nn(C)c(C(=O)O)c2Br)cc1` | -6.433% |
| `Cc1cc(CN(C)Cc2cc3c(cc2OC(F)F)OCO3)on1` | 0% |
| `Cn1ccc(CN2CCCN(c3nccs3)CC2)cc1=O` | 6.952% |
| `N#Cc1ccnc(N2CCN(CC(O)c3cccc(F)c3)CC2)c1` (stereo not shown) | 0.8475% |
| `CC(C)(C)n1nc(C2CC2)cc1C(=O)NC1CCN(CC(N)=O)CC1` | 11% |
| `C[C@H](O)CNc1cc(-c2cn[nH]c2)ncn1` | 2.26% |
| `O=C(O)c1sccc1Oc1ccc(NC(=O)C2CC2)cc1` | 1.042% |
| `CS(=O)(=O)NCCCNC(=O)c1cccc(-n2cccc2)c1` | 2.174% |
| `CN1CCC(CN2CCC3(CCCN(Cc4ccoc4)C3)C2=O)CC1` (stereo not shown) | 2.404% |
| `COc1ccc2c(c1)C(=O)N(C)C1(CCN(CC3CC3)CC1)N2` | 5.882% |
| `CCc1nc(CNCC2(C(N)=O)CCOCC2)cs1` | 2.809% |
| `CC(O)CN(CC(=O)NC(=O)NC1CC1)c1ccccc1` (stereo not shown) | -2.642% |

For reference, 6 entries once more:

{"compound": "N#CC1(NC(=O)c2ccc(-c3nc(C4CC4)n[nH]3)cc2)CCSC1", "stereo": "stereo not shown", "percent effect": 9.135}
{"compound": "Cc1c(NC(=O)NC(C)CCO)cccc1OC1CCCC1", "stereo": "stereo not shown", "percent effect": 9.392}
{"compound": "Cc1cc(CN(C)Cc2cc3c(cc2OC(F)F)OCO3)on1", "percent effect": 0}
{"compound": "Fc1cccc(-c2nc(CN3CCOC(Cn4cccn4)C3)co2)c1", "stereo": "stereo not shown", "percent effect": 4.511}
{"compound": "O=S(=O)(c1cccs1)N1CCCn2cnc(CO)c2C1", "percent effect": 8.824}
{"compound": "O=C([C@H]1C[C@@H]2CN(c3ncc(F)cn3)C[C@H]1O2)N1CCOCC1", "percent effect": 2.513}